Results are given in words; binding and its absence hold for the method and conditions named. Binding seen in cells or lysates may run through a third protein. Sequences can lack the tags named with a protein.

Binding data for 4 molecules are collected here from PMC3788743.

For test [1], the target named is T1, Flag-REEP1 (HSP), REEP1(Arg113X), HSP mutant form of REEP1 with a premature stop codon at Arg113 (mouse) (UniProt Q8BGH4).
T1 sequence: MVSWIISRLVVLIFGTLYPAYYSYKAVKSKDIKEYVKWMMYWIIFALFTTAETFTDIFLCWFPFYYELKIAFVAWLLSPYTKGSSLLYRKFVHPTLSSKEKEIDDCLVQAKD
The test can be described thus: co-IP; HEK293A cells co-transfected with HA-α2 AR and Flag-REEP, 18 h; lysates in modified RIPA buffer (0.15 M NaCl, 1% NP40, 0.25% DOC, 50 mM HEPES pH 7.4, 1 mM EDTA); precipitated with M2 (anti-Flag) on Dynabeads Protein G overnight at 4°C; blot with anti-HA.

The target in test [2] is HA-α2A adrenergic receptor. Nature of the test: co-IP; reverse: same lysates precipitated with 16B12 (anti-HA, α2 AR co-IP) on Dynabeads Protein G overnight at 4°C; blot with M2 (anti-Flag).

HA-α2C adrenergic receptor: the binding result in test [1] is “no binding”.

B1: Flag-REEP6 (receptor expression enhancing protein 6, mouse, carboxyl terminus Flag epitope) (protein, UniProt Q9JM62-1 1-201)
chain: MDGLRQRFERFLEQKNVATEALGALEARTGVEKRYLAAGALALLGLYLLFGYGASLLCNVIGFVYPAYASVKAIESPSKEDDTVWLTYWVVYALFGLVEFFSDLLLFWFPFYYAGKCAFLLFCMTPGPWNGALLLYHRVIRPLFLKHHMALDSAASQLSGRALDLAAGITRDVLQALARGRALVTPASTSEPPAALELDPK
As for B1, the binding entry in test [2] is recorded as “no binding”.

B2: Flag-REEP1 (receptor expression enhancing protein 1, mouse, carboxyl terminus Flag epitope) (protein, UniProt Q8BGH4 1-201)
chain: MVSWIISRLVVLIFGTLYPAYYSYKAVKSKDIKEYVKWMMYWIIFALFTTAETFTDIFLCWFPFYYELKIAFVAWLLSPYTKGSSLLYRKFVHPTLSSKEKEIDDCLVQAKDRSYDALVHFGKRGLNVAATAAVMAASKGQGALSERLRSFSMQDLTTIRGDGAPAPSGPPPPGTGRSSGKHSQPKMSRSASESAGSSGTA
B2: the binding result in test [2] is listed as “no binding”.

B3: Flag-REEP2 (receptor expression enhancing protein 2, mouse, carboxyl terminus Flag epitope) (protein, UniProt Q8VCD6 1-254)
chain: MVSWIISRLVVLIFGTLYPAYSSYKAVKTKNVKEYVKWMMYWIVFAFFTTAETLTDIILSWFPFYFELKIAFVIWLLSPYTKGSSVLYRKFVHPTLSNKEKEIDEYITQARDKSYETMMRVGKRGLNLAANAAVTAAAKGQGVLSEKLRSFSMQDLTLIRDEDALPLQGPDGRLQPGPVGLLDTIEDLGDEPALSLRSSTSQPDPRTETSEDDLGDKAPKRTKPIKKVPRAEPPASKTLKTRPKKKSSGGGDSA
Take B3: the binding result in test [2] is “no binding”.
